Laboratory results: PubChem BioAssay AID1259308 (NCATS, 2017)
This is a random part of about 59,000 reagents. In the full data, about 1,510 (2.6%) were called active. 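Calls use total luciferase alone and ignore viability, so some active siRNAs may act by altering cell number.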

Aim: 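Genes whose loss raises luciferase production in HEK293 cells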 (primary screen)
Cell system: human HEK293 embryonic kidney cells stably expressing firefly luciferase (HEK-CMV-Luc2-Hygro)
Knock-down reagent: single siRNA against human genes, 0.8 pmol siRNA per well
Time to read-out: 72 h
Measurement: 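Reporter luminescence and viable-cell signal on separate replicate plates, given as percent of non-targeting control and median/MAD z-scores, plus per-cell luciferase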
Scale: total luciferase, z-score and total luciferase, % of control: higher = more reporter protein produced; luciferase per cell, z-score: higher = more reporter output per viable cell; viable cells, % of control: higher = more viable cells
Call rule: 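An siRNA counts as active if its total luciferase robust z-score exceeds 3; genes with two or more such siRNAs out of three were retested with fresh siRNAs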
Calls: active = raised luciferase; inactive = no rise

gene | PubChem SID | total luciferase, z-score | total luciferase, % of control | luciferase per cell, z-score | viable cells, % of control | activity call
DAG1 (dystroglycan 1) | SID160752333 | -0.4 | 73.9 | -0.482 | 93.8 | inactive
DAG1 (dystroglycan 1) | SID160752343 | 0.747 | 96.8 | 0.891 | 85.5 | inactive
DAG1 (dystroglycan 1) | SID160752355 | 3.02 | 142 | 2.65 | 78.9 | active
STIM1 (stromal interaction molecule 1) | SID160717468 | 0.628 | 94.4 | 0.778 | 85.9 | inactive
STIM1 (stromal interaction molecule 1) | SID160717469 | -0.281 | 76.3 | -0.647 | 101 | inactive
STIM1 (stromal interaction molecule 1) | SID160717470 | 0.446 | 90.8 | -0.153 | 106 | inactive
ADORA2A (adenosine A2a receptor) | SID160714702 | 3.52 | 152 | 2.68 | 83.8 | active
ADORA2A (adenosine A2a receptor) | SID160714713 | 2.61 | 134 | 2.07 | 86.7 | inactive
ADORA2A (adenosine A2a receptor) | SID160714725 | 0.225 | 86.4 | 0.0588 | 95 | inactive
STX6 (syntaxin 6) | SID160727335 | -0.674 | 68.5 | 4.63 | 22.6 | inactive
STX6 (syntaxin 6) | SID160727343 | 0.202 | 85.9 | 0.481 | 84.6 | inactive
STX6 (syntaxin 6) | SID160727355 | -0.445 | 73 | 1.69 | 52.3 | inactive
TRERF1 (transcriptional regulating factor 1) | SID160744416 | -0.156 | 78.8 | -0.575 | 102 | inactive
TRERF1 (transcriptional regulating factor 1) | SID160744417 | 0.356 | 89 | -0.504 | 114 | inactive
TRERF1 (transcriptional regulating factor 1) | SID160744418 | 2.18 | 125 | 1.3 | 99.3 | inactive

Part of the list above in another layout:
{"gene":"ADORA2A (adenosine A2a receptor)","PubChem SID":"SID160714725","total luciferase, z-score":0.225,"total luciferase, % of control":86.4,"luciferase per cell, z-score":0.0588,"viable cells, % of control":95,"activity call":"inactive"}
{"gene":"STX6 (syntaxin 6)","PubChem SID":"SID160727335","total luciferase, z-score":-0.674,"total luciferase, % of control":68.5,"luciferase per cell, z-score":4.63,"viable cells, % of control":22.6,"activity call":"inactive"}

Next records follow.
gene | PubChem SID | total luciferase, z-score | total luciferase, % of control | luciferase per cell, z-score | viable cells, % of control | activity call
FETUB (fetuin B) | SID160738228 | -0.105 | 79.8 | -0.579 | 104 | inactive
FETUB (fetuin B) | SID160738230 | 0.103 | 83.9 | -0.17 | 98.1 | inactive
FETUB (fetuin B) | SID160738231 | -1.77 | 46.6 | -1.07 | 69.1 | inactive
IMP3 (IMP U3 small nucleolar ribonucleoprotein 3) | SID160743397 | -0.779 | 66.4 | -0.314 | 80.6 | inactive
IMP3 (IMP U3 small nucleolar ribonucleoprotein 3) | SID160743398 | -0.196 | 78 | -0.763 | 107 | inactive
IMP3 (IMP U3 small nucleolar ribonucleoprotein 3) | SID160743399 | -0.855 | 64.9 | -0.896 | 91.8 | inactive
PPFIA1 (PPFI scaffold protein A1) | SID160764197 | 1.56 | 113 | 1.66 | 81.5 | inactive
PPFIA1 (PPFI scaffold protein A1) | SID160764302 | -0.439 | 73.2 | -0.774 | 100 | inactive
PPFIA1 (PPFI scaffold protein A1) | SID160764407 | 1.27 | 107 | 0.773 | 97.7 | inactive
RAB3D (RAB3D, member RAS oncogene family) | SID160722470 | -0.72 | 67.6 | 0.487 | 66.4 | inactive
RAB3D (RAB3D, member RAS oncogene family) | SID160722471 | 0.142 | 84.7 | 0.533 | 82.2 | inactive
RAB3D (RAB3D, member RAS oncogene family) | SID160722472 | 0.073 | 83.3 | 0.536 | 80.9 | inactive
VARS2 (valyl-tRNA synthetase 2, mitochondrial) | SID160731590 | 0.191 | 85.7 | -0.194 | 101 | inactive
VARS2 (valyl-tRNA synthetase 2, mitochondrial) | SID160745760 | 1 | 102 | 1.44 | 77.8 | inactive
VARS2 (valyl-tRNA synthetase 2, mitochondrial) | SID160745761 | 0.674 | 95.3 | 0.545 | 92.3 | inactive
ENGASE (endo-beta-N-acetylglucosaminidase) | SID160747948 | 0.1 | 83.9 | 0.969 | 72.6 | inactive
ENGASE (endo-beta-N-acetylglucosaminidase) | SID160747949 | 0.401 | 89.9 | -0.177 | 105 | inactive
ENGASE (endo-beta-N-acetylglucosaminidase) | SID160747951 | 0.32 | 88.3 | -0.146 | 102 | inactive
KANK4 (KN motif and ankyrin repeat domains 4) | SID160760073 | 0.265 | 87.2 | 0.293 | 90.2 | inactive
KANK4 (KN motif and ankyrin repeat domains 4) | SID160760074 | -0.394 | 74.1 | 0.0205 | 82.3 | inactive
KANK4 (KN motif and ankyrin repeat domains 4) | SID160760075 | 2.1 | 124 | 2.5 | 71.5 | inactive
DAOA (D-amino acid oxidase activator) | SID160762703 | -0.36 | 74.7 | 2.44 | 43.9 | inactive
DAOA (D-amino acid oxidase activator) | SID160762704 | 0.171 | 85.3 | -0.139 | 98.9 | inactive
DAOA (D-amino acid oxidase activator) | SID160762705 | -0.00401 | 81.8 | -0.0529 | 92.7 | inactive
